Reference: patent US20090092617A1 (K BENHAVNS UNIVERSITET, published 2009)
These are yes or no findings as the source states them, for the method shown. Some entries that bind do so weakly or less than the wild type. Tags and fused reporters may be left off the sequences shown.

Molecular target: T1, Human ErbB4 extracellular part fused to Fc of human IgG1 (human) (UniProt Q15303)
T1 sequence (looked up): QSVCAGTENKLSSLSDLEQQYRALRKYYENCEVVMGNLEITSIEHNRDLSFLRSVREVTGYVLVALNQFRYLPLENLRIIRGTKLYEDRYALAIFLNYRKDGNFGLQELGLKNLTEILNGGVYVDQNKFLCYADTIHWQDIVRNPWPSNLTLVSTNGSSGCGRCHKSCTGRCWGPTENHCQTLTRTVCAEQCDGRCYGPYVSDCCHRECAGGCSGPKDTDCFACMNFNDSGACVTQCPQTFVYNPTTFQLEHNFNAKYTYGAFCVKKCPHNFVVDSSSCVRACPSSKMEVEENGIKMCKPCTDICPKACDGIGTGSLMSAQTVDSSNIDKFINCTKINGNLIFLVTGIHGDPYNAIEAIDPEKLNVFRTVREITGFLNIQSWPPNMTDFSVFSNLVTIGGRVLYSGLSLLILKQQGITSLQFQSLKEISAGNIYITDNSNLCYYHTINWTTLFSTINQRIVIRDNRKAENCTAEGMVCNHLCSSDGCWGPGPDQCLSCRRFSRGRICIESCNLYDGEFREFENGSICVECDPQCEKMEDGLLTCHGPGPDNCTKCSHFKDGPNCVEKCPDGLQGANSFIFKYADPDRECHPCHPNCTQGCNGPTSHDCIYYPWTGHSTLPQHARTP
Experiment: SPR; members taken from Table 1

B1: Inherbin4 peptide, tetrameric dendrimer (peptide)
peptide: FVYNPTTFQLEMNFNAK
modifications: four monomers coupled to a lysine backbone (tetrameric dendrimer)
- binding: binds
